Measurements taken from publication PMC11319797.

How the values were obtained:
[1] = target: T1, DiPRO1 (ZNF555), HA-tagged (Homo sapiens) (UniProt Q8NEP9); assay: competition with a labelled probe; details: 300-fold excess unlabeled, 20 mM HEPES pH 7.6, 40 mM NaCl, 5 mM MgCl2, 0.5 mM ZnSO4, 0.1 mM EDTA, 4% Ficoll, 1 ug poly(dI-dC), 100-200 fmol DNA, 5-6 ug nuclear extract in 20 ul, on ice 30 min, protein in an extract, label: unlabeled competitor
T1 sequence (looked up, limits assumed): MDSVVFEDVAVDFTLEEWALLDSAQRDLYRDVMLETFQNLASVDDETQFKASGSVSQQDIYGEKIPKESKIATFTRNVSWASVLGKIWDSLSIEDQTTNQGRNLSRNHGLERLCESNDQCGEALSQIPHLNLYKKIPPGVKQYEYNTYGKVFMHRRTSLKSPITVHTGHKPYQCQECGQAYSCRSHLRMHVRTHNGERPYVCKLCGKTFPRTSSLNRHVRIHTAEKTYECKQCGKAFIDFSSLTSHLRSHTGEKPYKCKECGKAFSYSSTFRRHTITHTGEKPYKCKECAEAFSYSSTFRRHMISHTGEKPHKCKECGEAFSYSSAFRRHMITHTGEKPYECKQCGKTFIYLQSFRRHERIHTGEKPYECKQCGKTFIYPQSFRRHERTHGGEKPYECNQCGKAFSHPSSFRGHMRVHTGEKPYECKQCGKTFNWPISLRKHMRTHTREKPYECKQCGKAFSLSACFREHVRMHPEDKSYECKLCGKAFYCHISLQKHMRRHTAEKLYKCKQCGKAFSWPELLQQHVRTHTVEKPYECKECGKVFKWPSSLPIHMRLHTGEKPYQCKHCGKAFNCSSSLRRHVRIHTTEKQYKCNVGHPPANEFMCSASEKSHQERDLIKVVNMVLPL

[2] = target: T1, DiPRO1 (ZNF555), HA-tagged (Homo sapiens); assay: EMSA; details: nuclear extract, complexes suppressed by anti-HA; 20 mM HEPES pH 7.6, 40 mM NaCl, 5 mM MgCl2, 0.5 mM ZnSO4, 0.1 mM EDTA, 4% Ficoll, 1 ug poly(dI-dC), 100-200 fmol DNA, 5-6 ug nuclear extract in 20 ul, on ice 30 min; protein in an extract; label: Klenow end label
[3] = tested on: SIX1; assay: EMSA; details: added to pDiPRO1-RMS extract, BS4 forms, DiPRO1 BS1/2 weakened; 20 mM HEPES pH 7.6, 40 mM NaCl, 5 mM MgCl2, 0.5 mM ZnSO4, 0.1 mM EDTA, 4% Ficoll, 1 ug poly(dI-dC), 100-200 fmol DNA, 5-6 ug nuclear extract in 20 ul, on ice 30 min; protein translated in vitro; label: Klenow end label

Sequence: GAGAAAGGCTGGCTTCCCTCCATG (double strand) [TNFSF9 site]
- binding result ([1]; considerably reduced DiPRO1 complexes): binds

Sequence: GAATGTCAGGGGCTTCAGGTTTCCCTAAATA (double strand) [Aldolase A MEF3 site]
- binding result [2]: binds
- binding result [3]: binds

Sequence: GCGCCTGGCCTAGGGTCCCTTTT (double strand) [TRAF1 site]
- binding result ([1]; did not compete): no binding

For at least one entry, the source does not settle the construct or the ends of the probe. For some of these results: Results from cells or extracts need not show a direct contact. For some of these results: Negatives hold for the conditions tested. For some of these results: Where a protein sequence is shown, tags need not be part of it.
